Experimental data taken from PMC12107181 (2025).
These are yes or no findings as the source states them, for the method shown. For some assays here: Binding seen in cells or lysates may run through a third protein. Some results given as binding are weak or reduced against the parent protein; the word gives no strength. Sequences can lack the tags named with a protein. Blank lines part the entries; values can stand above or below the binder they belong to.

Key:
BD-SPA1 (Arabidopsis) [1] = molecular target: T1, BD-SPA1 (Arabidopsis) (UniProt Q9SYX2); assay: two-hybrid; directed Y2H; BD fusion as bait, AD fusion as prey; transformed yeast grown on the indicated media at decreasing OD (Fig. 1A; the Y2H panels of SI Appendix, Figs. S4 and S5D, whose read-out was not shown, are put here)
T1 sequence: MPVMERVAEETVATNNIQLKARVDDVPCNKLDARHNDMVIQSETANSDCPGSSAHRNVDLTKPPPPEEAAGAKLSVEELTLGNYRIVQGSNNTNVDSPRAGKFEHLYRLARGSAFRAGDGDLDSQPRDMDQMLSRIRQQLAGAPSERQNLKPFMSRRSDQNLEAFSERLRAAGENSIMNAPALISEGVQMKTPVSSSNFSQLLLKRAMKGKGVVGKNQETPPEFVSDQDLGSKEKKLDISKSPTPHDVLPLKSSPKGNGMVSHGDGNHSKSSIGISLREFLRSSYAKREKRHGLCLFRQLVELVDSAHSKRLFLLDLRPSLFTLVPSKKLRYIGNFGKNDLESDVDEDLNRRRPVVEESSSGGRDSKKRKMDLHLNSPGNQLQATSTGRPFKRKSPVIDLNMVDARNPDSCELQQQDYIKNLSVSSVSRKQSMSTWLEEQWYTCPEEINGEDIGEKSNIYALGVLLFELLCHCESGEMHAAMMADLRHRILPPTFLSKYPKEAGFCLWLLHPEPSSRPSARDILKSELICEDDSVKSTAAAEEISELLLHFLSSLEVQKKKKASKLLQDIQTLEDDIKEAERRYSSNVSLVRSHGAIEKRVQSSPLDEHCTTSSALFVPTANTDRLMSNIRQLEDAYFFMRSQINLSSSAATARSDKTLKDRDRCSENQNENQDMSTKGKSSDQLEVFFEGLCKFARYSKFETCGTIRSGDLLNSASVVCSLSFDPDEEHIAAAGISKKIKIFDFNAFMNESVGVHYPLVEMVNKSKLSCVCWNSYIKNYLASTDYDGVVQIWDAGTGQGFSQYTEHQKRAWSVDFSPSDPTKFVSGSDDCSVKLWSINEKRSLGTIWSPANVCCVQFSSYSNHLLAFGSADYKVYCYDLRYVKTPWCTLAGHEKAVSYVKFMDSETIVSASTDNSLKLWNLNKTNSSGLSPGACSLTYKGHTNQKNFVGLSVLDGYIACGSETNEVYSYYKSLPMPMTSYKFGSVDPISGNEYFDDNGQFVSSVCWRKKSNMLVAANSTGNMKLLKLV

BD-COP1 (Arabidopsis) [2] = molecular target: T2, BD-COP1 (Arabidopsis) (UniProt P43254); assay: as above
T2 sequence: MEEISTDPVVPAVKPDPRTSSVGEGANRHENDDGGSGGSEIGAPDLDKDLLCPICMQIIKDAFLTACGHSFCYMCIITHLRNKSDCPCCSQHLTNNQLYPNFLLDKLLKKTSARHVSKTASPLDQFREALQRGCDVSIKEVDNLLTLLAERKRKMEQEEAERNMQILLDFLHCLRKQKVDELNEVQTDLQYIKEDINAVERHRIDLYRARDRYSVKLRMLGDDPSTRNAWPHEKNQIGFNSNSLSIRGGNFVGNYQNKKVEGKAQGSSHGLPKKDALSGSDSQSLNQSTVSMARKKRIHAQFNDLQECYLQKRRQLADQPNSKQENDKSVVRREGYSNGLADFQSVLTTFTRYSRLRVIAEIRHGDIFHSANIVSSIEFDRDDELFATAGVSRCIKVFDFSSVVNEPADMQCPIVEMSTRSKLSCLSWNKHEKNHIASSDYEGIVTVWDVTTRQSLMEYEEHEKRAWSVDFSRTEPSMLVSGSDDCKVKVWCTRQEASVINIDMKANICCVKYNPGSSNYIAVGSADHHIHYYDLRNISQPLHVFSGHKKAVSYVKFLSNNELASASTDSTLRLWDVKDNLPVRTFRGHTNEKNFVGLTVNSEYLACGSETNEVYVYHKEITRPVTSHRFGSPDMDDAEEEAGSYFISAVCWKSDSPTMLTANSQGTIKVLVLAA

BD-COP1 (Arabidopsis) [3] = molecular target: T2, BD-COP1 (Arabidopsis); assay: two-hybrid; Y2H, quantified read-out with SD of three independent biological replicates (Fig. 2B, E, F); BD-COP1 or its mutants with AD fusions
BD-SPA1 (Arabidopsis) [4] = molecular target: T1, BD-SPA1 (Arabidopsis); assay: two-hybrid; screen of a yeast two-hybrid transcription factor library for interactors of COP1 and/or SPA1
BD-COP1 (Arabidopsis) [5] = molecular target: T2, BD-COP1 (Arabidopsis); assay: as above
BD-COP1 (Arabidopsis) [6] = molecular target: T2, BD-COP1 (Arabidopsis); assay: two-hybrid; yeast three-hybrid (Y3H); BD-COP1 as bait and AD-TCP3 as prey in the presence or absence of coexpressed, untagged SPA1 or TCP10 (Bridge); β-galactosidase activity
MBP-COP1 (Arabidopsis) = molecular target: T3, MBP-COP1 (Arabidopsis) (UniProt P43254); assay: pull-down; GST-TCP3, GST and MBP-COP1 purified from E. coli; coprecipitated using MBP-beads, eluates analysed with α-GST and α-MBP; both purified
T3 sequence: T2 sequence

nLUC-SPA1 (Arabidopsis) = molecular target: T4, nLUC-SPA1 (Arabidopsis) (UniProt Q9SYX2); assay: split reporter; luciferase complementation imaging (LCI) in transfected tobacco leaves; also with coexpressed YFP-NLS-SPA1 or YFP-NLS-GUS
T4 sequence: T1 sequence

nLUC-COP1 (Arabidopsis) = molecular target: T5, nLUC-COP1 (Arabidopsis) (UniProt P43254); assay: as above
T5 sequence: T2 sequence

YFP-COP1 (Arabidopsis) = molecular target: T6, YFP-COP1 (Arabidopsis) (UniProt P43254); assay: FRET or BRET; FRET-FLIM in leek epidermal cells transfected by particle bombardment; lifetime of the donor YFP against mCherry alone as control
T6 sequence: T2 sequence

YFP-SPA1 (Arabidopsis) = molecular target: T7, YFP-SPA1 (Arabidopsis) (UniProt Q9SYX2); assay: as above
T7 sequence: T1 sequence

B2: AD-TCP10 (protein, UniProt O82277 1-361)
chain: MGLKGYSVGEGGGEIVEVQGGHIIRATGRKDRHSKVFTSKGPRDRRVRLSAHTAIQFYDVQDRLGYDRPSKAVDWLIKKAKTAIDKLELGETTTTTTRQEPVNTKPESPTLVFQRENNDQTQFVAANLDPEDAMKTFFPATTTTNGGGGTNINFQNYPHQDDNNMVSRTTTPPPNLSQDLGLSLHPFQGNNNTVVVPETNNFTTTHFDTFGRISGWNHHDLTMTSSSSSEHQQQEQEERSNGGFMVNHHPHHHHHQPSMMTLLNSQQQQVFLGGQQQQQQRGTLQSSLFPHSFRSWDHHQTTSDHHHHQNQASSMFASSSQYGSHGMMMMQGLSFPNTTRLLHGEEATQPNSSSSPPNSHL
- binding (BD-COP1 (Arabidopsis) [3]): binds
- binding (BD-SPA1 (Arabidopsis) [1]): binds
- binding (BD-COP1 (Arabidopsis) [2]): binds

B3: AD-PAP2 (protein, UniProt Q9ZTC3 1-249)
chain: MEGSSKGLRKGAWTAEEDSLLRLCIDKYGEGKWHQVPLRAGLNRCRKSCRLRWLNYLKPSIKRGRLSNDEVDLLLRLHKLLGNRWSLIAGRLPGRTANDVKNYWNTHLSKKHESSCCKSKMKKKNIISPPTTPVQKIGVFKPRPRSFSVNNGCSHLNGLPEVDLIPSCLGLKKNNVCENSITCNKDDEKDDFVNNLMNGDNMWLENLLGENQEADAIVPEATTAEHGATLAFDVEQLWSLFDGETVELD
- binding (BD-COP1 (Arabidopsis) [3]): binds

B4: AD-TCP3 (protein, UniProt Q9MAH8 1-391)
chain: MAPDNDHFLDSPSPPLLEMRHHQSATENGGGCGEIVEVQGGHIVRSTGRKDRHSKVCTAKGPRDRRVRLSAPTAIQFYDVQDRLGFDRPSKAVDWLITKAKSAIDDLAQLPPWNPADTLRQHAAAAANAKPRKTKTLISPPPPQPEETEHHRIGEEEDNESSFLPASMDSDSIADTIKSFFPVASTQQSYHHQPPSRGNTQNQDLLRLSLQSFQNGPPFPNQTEPALFSGQSNNQLAFDSSTASWEQSHQSPEFGKIQRLVSWNNVGAAESAGSTGGFVFASPSSLHPVYSQSQLLSQRGPLQSINTPMIRAWFDPHHHHHHHQQSMTTDDLHHHHPYHIPPGIHQSAIPGIAFASSGEFSGFRIPARFQGEQEEHGGDNKPSSASSDSRH
- binding (BD-COP1 (Arabidopsis) [3]): binds
- binding (BD-SPA1 (Arabidopsis) [4]): binds
- binding (BD-COP1 (Arabidopsis) [5]): binds
- binding (BD-SPA1 (Arabidopsis) [1]): binds
- binding (BD-COP1 (Arabidopsis) [2]): binds
- binding (BD-COP1 (Arabidopsis) [6]): binds

B5: GST-TCP3 (protein, UniProt Q9MAH8 1-391)
chain: B4 chain
- binding (MBP-COP1 (Arabidopsis)): binds

B6: TCP3-cLUC (protein, UniProt Q9MAH8 1-391)
chain: B4 chain
- binding (nLUC-SPA1 (Arabidopsis)): binds
- binding (nLUC-COP1 (Arabidopsis)): binds

Other lines, results leading:

- binding (BD-SPA1 (Arabidopsis) [1]): binds
- binding (BD-COP1 (Arabidopsis) [2]): binds
B1: TCP4 (protein, UniProt Q8LPR5 1-420)
chain: MSDDQFHHPPPPSSMRHRSTSDAADGGCGEIVEVQGGHIVRSTGRKDRHSKVCTAKGPRDRRVRLSAHTAIQFYDVQDRLGFDRPSKAVDWLIKKAKTSIDELAELPPWNPADAIRLAAANAKPRRTTAKTQISPSPPPPQQQQQQQQLQFGVGFNGGGAEHPSNNESSFLPPSMDSDSIADTIKSFFPVIGSSTEAPSNHNLMHNYHHQHPPDLLSRTNSQNQDLRLSLQSFPDGPPSLLHHQHHHHTSASASEPTLFYGQSNPLGFDTSSWEQQSSEFGRIQRLVAWNSGGGGGATDTGNGGGFLFAPPTPSTTSFQPVLGQSQQLYSQRGPLQSSYSPMIRAWFDPHHHHQSISTDDLNHHHHLPPPVHQSAIPGIGFASGEFSSGFRIPARFQGQEEEQHDGLTHKPSSASSISRH

- binding (YFP-COP1 (Arabidopsis)): binds
- binding (YFP-SPA1 (Arabidopsis)): binds
B7: mCherry-TCP3 (protein, UniProt Q9MAH8 1-391)
chain: B4 chain
